Results of single-concentration screens

Source: ChEMBL document CHEMBL3988442, “University of Dundee, Small-Polar-MMV Screening Library” (2021).

Results are given as percent effect.
How 0% and 100% were set is not recorded. Most values in the screen are low, and negative values occur.
This is an unselected part of the compounds tested.

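Assay of Toxoplasma gondii numbers, read through their beta-galactosidase reporter with a colour substrate. Tested at 10 µM. The record gives no direction; the compounds picked for IC50 retests had high values, so higher reads as fewer parasites. Of about 67,000 compounds tested this way, about 260 (0.38%) reached 50% or more in at least one test.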

compound | percent effect
CCCNCc1cc2c(C)cc(C)cc2n2c(=O)n(C)nc12 | 4.933%
COCCN1CCC(NC(=O)NCC2(c3ccccc3)CC2)C1 (stereo not shown) | -1.087%
CCNC(=O)[C@@H]1C[C@@H](NC(=O)c2ccc(C)cc2O)CN1CCCSC | -29.82%
Fc1cccnc1N1CCCC(c2nccs2)C1 (stereo not shown) | 9.838%
CCOCC1CN(C(=O)c2cscn2)Cc2nnn(CC3CC3)c21 (stereo not shown) | 0.8069%
c1cnnc(N2CCCC2CNCc2nc(-c3ccoc3)no2)c1 (stereo not shown) | -36.78%
CC(C)N1CCC(Cc2cncc(-c3ccccc3C(=O)O)n2)C1 (stereo not shown) | 2.181%
CCS(=O)(=O)Nc1ccc2[nH]c(C3CCC3)nc2c1 | 14.19%
COCC(=O)N1CCC2(CC1)CN(S(C)(=O)=O)Cc1ccccc1O2 | -5.786%
CS(=O)(=O)NCCCNC(=O)NCc1ccccc1 | -8.735%
Cl.Fc1cccc(F)c1Cn1c(C2CCCNC2)cc2cccnc21 (stereo not shown) | 8.54%
CC(NC(=O)CN1CCN(c2cccc(Cl)c2)CC1)c1ccco1 (stereo not shown) | 4.331%
CNS(=O)(=O)Cc1cccc(CNc2ccc(C#N)cn2)c1 | -4.5%
O=c1oc(-c2ccc(F)cc2)nn1CC1CCCCO1 (stereo not shown) | 3.605%
COCCOc1cccc(CNCc2ccc(-n3cncn3)nc2)c1 | -7.199%
Cc1ccc(N2CC3(COCCN(Cc4ccncc4)C3)OCC2=O)s1.O=C(O)C(F)(F)F.O=C(O)C(F)(F)F (stereo not shown) | 4.515%
COc1ccccc1CN1CC(OC)CN(C(=O)CC(C)C)CC1=O (stereo not shown) | -4.751%
COc1cc(F)cc(CNC(=O)Nc2ccn(CC(F)F)n2)c1 | 6.257%
CN1CC2(CCN(Cc3ccoc3)CC2)COc2ccccc2S1(=O)=O.O=C(O)C(F)(F)F | 5.157%
CCNC(=O)C1(Cc2cc(-c3ccccc3)no2)CCCN(C(C)=O)C1 (stereo not shown) | -1.172%
Cc1cc(C)n(-c2ccc(CNCc3ccc(C)o3)cn2)n1 | 9.709%
Cc1noc(C(C)C)c1C(=O)NS(=O)(=O)c1ccc2c(c1)OCCCO2 | 0.4525%
Cc1cc(F)ccc1S(=O)(=O)N1C[C@@H](C)[C@@](C)(O)C1 | 1.001%
CCc1ccc(C2COCCN2C(=O)Nc2cc(C)on2)o1 (stereo not shown) | 0.1082%
O=C(O)C(F)(F)F.[H][C@@]12CN(C(=O)c3cccn3C)C[C@]1([H])C(=O)N(Cc1csc(C)n1)C2 | 2.743%
O=C(CSC1CCc2ccccc2NC1=O)NCCO (stereo not shown) | -4.596%
O=c1c2cccnc2cnn1CC(O)c1cccc(Cl)c1 (stereo not shown) | -0.2938%
CC(C)NC(=O)[C@@H]1C[C@H](N)CN1C(=O)c1cc2ccccc2[nH]c1=O | -5.467%
c1cc(CNCc2ccnc(N3CCCC3)c2)c2c(c1)OCO2 | -24.2%
NC(=O)CCN1C(=O)CC(Cc2ccc(F)cc2)C1=O (stereo not shown) | 6.32%
O=C(O)C(F)(F)F.O=C(O)C(F)(F)F.[H][C@@]12COC[C@]1(COCC1CC1)CN(Cc1cccnc1OC)C2 | 0.4782%
Cc1cnn(CCNCc2ccccc2F)c1 | 6.706%
Cc1ccc(C2COCCN2C(=O)c2cccc(N(C)C)c2)o1 (stereo not shown) | 0.814%
Cl.O=C(CCn1c(C(F)(F)F)cc2cccnc21)N1CCOCC1 | -7.674%
CC(C)c1nc(CN2CCc3onc(-c4cccc(F)c4)c3C2)no1 | -12.2%
CC(C)C(C(=O)N1CCN(Cc2ccncc2)CC1)n1cncn1 (stereo not shown) | 17.29%
COCCn1cc(C(=O)N2CCCC(n3cncn3)C2)ccc1=O (stereo not shown) | 0.4632%
O=C(O)C(F)(F)F.O=C(O)C(F)(F)F.O=C(O)C(F)(F)F.O=C(O)C(F)(F)F.[H][C@@]12CN(Cc3cccnc3)C[C@]1([H])[C@@H](OC)CCN2Cc1cccc(C)n1 | 26.31%
CCN1CCOCC2(CCCN(c3nncs3)C2)C1 (stereo not shown) | -0.308%
COCCOc1ccccc1C(=O)Nc1c(C)cnn1CC1CC1 | -10.91%
CCOc1ccc(C(=O)N2CCN(c3nccn3C)CC2)cc1.Cl | 23.16%
CN(Cc1ccn[nH]1)C(=O)CCC(=O)NC1CCCC1 | -3.624%
O=C(CNC(=O)C1CCCC1)NCc1cnn(-c2ccc(F)cc2F)c1 | -17.49%
[H][C@@]12CCN(C3CCC3)C[C@]1([H])OCCN(Cc1ccncc1)C2=O | -1.42%
COc1ccc(S(=O)(=O)N2CCc3ccc(Cl)cc32)cc1C(=O)O | 7.441%
COC(=O)[C@@H]1Cc2[nH]cnc2CN1Cc1cc2ccccc2o1 | 1.107%
CNC(=O)C(CC(C)C)NC(=O)c1cccc(-c2nc(C)cs2)c1 (stereo not shown) | -7.633%
O=C(NCCOC1CCCCC1)c1ccc(-c2ccco2)[nH]c1=O | 33.38%
[H][C@@]12CN(Cc3ccc(C(F)(F)F)cc3)C[C@]1([H])OCC(=O)N2CC(N)=O | -6.321%
CC1CCC(NC(=O)c2nn(C)cc2Br)CC1 (stereo not shown) | -0.4872%
Cc1nc(-c2c(C)noc2C)cc(C2CCN(CC(=O)N(C)C)CC2)n1 | 12.37%
O=C(NCc1ccccc1Cn1cncn1)C1CCCCC1 | -3.649%
CNC(=O)c1cc2c(nc1N(C)C)CCN(c1ncccn1)CC2.O=C(O)C(F)(F)F | 4.811%
CC(=O)N1CCN(c2cc(-n3cnc(C)c3C)nc(C)n2)CC1 | -10.27%
CCOc1cc(/C=C/c2ncc(C(=O)O)s2)ccc1O | -5.343%
CC(=O)N1CCCN(C(=O)NCCNc2cnccn2)CC1 | -5.195%
c1ccc(CCc2n[nH]c(CCN3CCCCC3)n2)cc1 | 23.73%
Cc1cc(NC(=O)C(C#N)Cc2cnn(C)c2C)no1 (stereo not shown) | 10.98%
O=C(CCn1cnnn1)N1CCCC(CO)(CCc2ccccc2)C1 (stereo not shown) | -8.338%
O=C(C[S+]([O-])Cc1cccc(C(F)(F)F)c1)NC1CCCC1 (stereo not shown) | -1.535%
Cc1ccc(N2CCC3(CCCN(C(=O)c4cnccn4)C3)C2)nn1 (stereo not shown) | 2.128%
CS(=O)(=O)N1C[C@@H](F)[C@@H](OCc2nc3ccccc3o2)C1 | -10.55%
CCn1c(CNCC2CCCN2c2cccnn2)nc2ccccc21 (stereo not shown) | -7.592%
CC(C)C[C@@H](C(N)=O)n1cc(-c2cncnc2)nn1 | -39.34%
COc1ccc(CC(=O)N2CCCC2c2nc(C)c(C)c(O)n2)cc1 (stereo not shown) | -16.58%
CCOCCCNC(=O)c1cn(CC)nc1C | 0.2391%
Cc1nc(N)nc(C)c1Cc1nc(C2CC2)n[nH]1 | 14.18%
Cc1ccc(NC(=O)Nc2c(O)oc3ccccc3c2=O)cc1C | -32.13%
Cc1nc(CCCNC(=O)C2CC(=O)N(C(C)(C)C)C2)sc1C (stereo not shown) | 14.5%
COC[C@@H]1CCC[C@]12CN(Cc1cccc(C)n1)CCO2.O=C(O)C(F)(F)F.O=C(O)C(F)(F)F | -5.738%
CC(=O)NC1CCCN(Cc2ccn(C)c(=O)c2)C1 (stereo not shown) | -15.81%
CC(OCC1CC1)C(=O)Nc1ncccc1I (stereo not shown) | -9.007%
O=C(CCCc1cn[nH]c1)N1C[C@@H](CN2CCOCC2)[C@@H](CO)C1 | 0.4379%
Cc1nc(C)n(CC2CCCN(CCOc3ccc(F)cc3)C2)n1 (stereo not shown) | -11.56%
O=C(O)C(F)(F)F.[H][C@@]12CN(S(=O)(=O)c3ccc(C#N)cc3)C[C@]1([H])OCCN2C | -6.494%
O=C(NCC1CC1)C1CCC2(CCN(C(=O)c3ccoc3)CC2)O1 (stereo not shown) | -15.18%
Cc1csc(C2CCCCN2C(=O)CN(C)Cc2ccccc2)n1 (stereo not shown) | 1.631%
C[C@H]1CN(C(=O)c2ccc[nH]2)C[C@@]12CCN(c1ccsc1)C2=O | -21.34%